Laboratory results: article doi:10.1101/2021.07.07.451493
These are yes or no findings as the source states them, for the method shown. Binding seen in cells or lysates may run through a third protein. Some binding calls cover weakened binding; strength is not graded here.

By UniProt entry, the sequences of proteins in these tests, tags left out. Where a name states a change or a piece, a line headed by the entry shows the natural chain unless it says otherwise. Chains listed by the source or under a name are the forms on record and can include a tag or linker.
APOE4, endogenous in APOE4/4 human postmortem brain (human (endogenous in postmortem brain)) (P02649, form named): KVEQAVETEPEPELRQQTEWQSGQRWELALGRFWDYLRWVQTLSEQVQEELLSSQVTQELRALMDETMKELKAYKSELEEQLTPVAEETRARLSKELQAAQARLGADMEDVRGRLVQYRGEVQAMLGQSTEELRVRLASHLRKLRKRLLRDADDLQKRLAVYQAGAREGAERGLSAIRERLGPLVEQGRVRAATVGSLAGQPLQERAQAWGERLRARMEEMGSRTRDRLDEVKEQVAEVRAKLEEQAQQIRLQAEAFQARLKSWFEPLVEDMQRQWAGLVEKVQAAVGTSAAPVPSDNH

Target: APOE4, endogenous in APOE4/4 human postmortem brain (human (endogenous in postmortem brain)) (UniProt P02649)
Assay: co-IP

B1: glypican-4 (GPC-4), endogenous in human postmortem brain (protein, UniProt O75487 19-529)
chain: ALLAAELKSKSCSEVRRLYVSKGFNKNDAPLHEINGDHLKICPQGSTCCSQEMEEKYSLQSKDDFKSVVSEQCNHLQAVFASRYKKFDEFFKELLENAEKSLNDMFVKTYGHLYMQNSELFKDLFVELKRYYVVGNVNLEEMLNDFWARLLERMFRLVNSQYHFTDEYLECVSKYTEQLKPFGDVPRKLKLQVTRAFVAARTFAQGLAVAGDVVSKVSVVNPTAQCTHALLKMIYCSHCRGLVTVKPCYNYCSNIMRGCLANQGDLDFEWNNFIDAMLMVAERLEGPFNIESVMDPIDVKISDAIMNMQDNSVQVSQKVFQGCGPPKPLPAGRISRSISESAFSARFRPHHPEERPTTAAGTSLDRLVTDVKEKLKQAKKFWSSLPSNVCNDERMAAGNGNEDDCWNGKGKSRYLFAVTGNGLANQGNNPEVQVDTSKPDILILRQIMALRVMTSKMKNAYNGNDVDFFDISDESSGEGSGSGCEYQQCPSEFDYNATDHAGKSANEKADS
For B1, the binding was “binds”.
